Step yield and conjugation yield data for 2 substances are collected here from patent US20230111996A1 (priority 2020, published 2023).

A short description of this data set: general procedure: solution-phase peptide synthesis.

The substance “(S)-2-(2-(2-aminoacetamido)acetamido)-N-(2-(((S)-9-ethyl-5-fluoro-9-hydroxy-10,13-dioxo-2,3,9,10,13,15-hexahydro-1H,12H-benzo[de]pyrano[3′,4′:6,7]indolizino[1,2-b]quinolin-4-yl)amino)-2-oxoethyl)-3-phenylpropanamide” came in with a step yield (coupling step) of 35%. Under “conjugation step”, “1-(3-(2,5-Dioxo-2,5-dihydro-1H-pyrrol-1-yl)propanamido)-N-(2-((2-(((S)-1-((2-(((S)-9-ethyl-5-fluoro-9-hydroxy-10,13-dioxo-2,3,9,10,13,15-hexahydro-1H,12H-benzo[de]pyrano[3′,4′:6,7]indolizino[1,2-b]quinolin-4-yl)amino)-2-oxoethyl)amino)-1-oxo phenylpropan-2-yl)amino)-2-oxoethyl)amino)-2-oxoethyl)-3,6,9,12,15,18,21,24-octaoxaheptacosan-27-amide” displayed a conjugation yield of 53%.
